{
  "sequences": {"note": "Sequences of proteins named here, by UniProt entry; tags and fusion partners are left off. A change or cut given only in a name is not applied to a line headed by its entry.", "UniProt P0ABQ4": "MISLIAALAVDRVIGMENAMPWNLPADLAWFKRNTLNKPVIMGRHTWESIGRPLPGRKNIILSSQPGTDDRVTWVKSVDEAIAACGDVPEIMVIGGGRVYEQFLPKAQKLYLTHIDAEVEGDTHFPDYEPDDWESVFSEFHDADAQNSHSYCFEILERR"},
  "source": "paper PMC8243409",
  "about": "(Journal of chemical information and modeling, 2021)",
  "biological_target": "E. coli dihydrofolate reductase (DHFR) (Escherichia coli, UniProt P0ABQ4)",
  "test": "steady-state kinetics dose response",
  "format": "biochemical",
  "data": [
    {"smiles": "COc1cc2ncnc(Nc3ccc(F)c(Cl)c3)c2cc1OCCCN1CCOCC1", "note": "[NSC715055, Gefitinib]", "values": [
      {"measurement": "IC50", "value": "~64", "unit": "µM"}
    ]}
  ]
}
